Results are given in words; binding and its absence hold for the method and conditions named. In cells and extracts the contact can be indirect. A yes stands for co-enrichment or nearness to the bait. Other partners may have been found. Tags and fused reporters may be left off the sequences shown.
T1: PE_PGRS20 of Mycobacterium tuberculosis, HA-tagged (M. tuberculosis) (UniProt P9WIF9)
T1 sequence: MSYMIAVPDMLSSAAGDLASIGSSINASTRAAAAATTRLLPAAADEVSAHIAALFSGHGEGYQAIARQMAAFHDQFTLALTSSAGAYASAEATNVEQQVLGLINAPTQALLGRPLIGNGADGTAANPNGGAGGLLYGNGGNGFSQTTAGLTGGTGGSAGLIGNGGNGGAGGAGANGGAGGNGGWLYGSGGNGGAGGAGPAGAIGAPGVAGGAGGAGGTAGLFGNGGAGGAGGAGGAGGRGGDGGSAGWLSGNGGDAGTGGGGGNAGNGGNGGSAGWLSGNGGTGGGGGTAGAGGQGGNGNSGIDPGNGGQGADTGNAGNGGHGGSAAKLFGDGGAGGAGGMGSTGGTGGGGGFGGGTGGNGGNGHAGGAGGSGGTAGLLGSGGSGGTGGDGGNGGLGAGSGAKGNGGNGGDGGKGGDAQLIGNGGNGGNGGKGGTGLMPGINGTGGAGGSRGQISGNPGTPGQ

Sequences of proteins named here, by UniProt entry; tags and fusion partners are left off. Residues count along the entry.
UniProt P56480, residues 47-529: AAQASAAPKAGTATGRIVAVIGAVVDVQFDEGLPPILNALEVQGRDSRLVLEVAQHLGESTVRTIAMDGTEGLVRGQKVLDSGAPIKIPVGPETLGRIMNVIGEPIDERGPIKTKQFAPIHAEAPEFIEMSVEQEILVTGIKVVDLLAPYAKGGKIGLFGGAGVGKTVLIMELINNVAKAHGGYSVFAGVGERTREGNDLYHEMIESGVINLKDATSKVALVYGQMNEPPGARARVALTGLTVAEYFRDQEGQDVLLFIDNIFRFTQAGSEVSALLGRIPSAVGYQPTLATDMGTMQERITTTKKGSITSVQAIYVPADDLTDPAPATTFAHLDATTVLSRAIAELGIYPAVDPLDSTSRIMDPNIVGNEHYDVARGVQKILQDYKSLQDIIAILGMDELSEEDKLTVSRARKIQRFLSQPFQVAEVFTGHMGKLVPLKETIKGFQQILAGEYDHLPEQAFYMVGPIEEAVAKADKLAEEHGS
UniProt Q8C3J5: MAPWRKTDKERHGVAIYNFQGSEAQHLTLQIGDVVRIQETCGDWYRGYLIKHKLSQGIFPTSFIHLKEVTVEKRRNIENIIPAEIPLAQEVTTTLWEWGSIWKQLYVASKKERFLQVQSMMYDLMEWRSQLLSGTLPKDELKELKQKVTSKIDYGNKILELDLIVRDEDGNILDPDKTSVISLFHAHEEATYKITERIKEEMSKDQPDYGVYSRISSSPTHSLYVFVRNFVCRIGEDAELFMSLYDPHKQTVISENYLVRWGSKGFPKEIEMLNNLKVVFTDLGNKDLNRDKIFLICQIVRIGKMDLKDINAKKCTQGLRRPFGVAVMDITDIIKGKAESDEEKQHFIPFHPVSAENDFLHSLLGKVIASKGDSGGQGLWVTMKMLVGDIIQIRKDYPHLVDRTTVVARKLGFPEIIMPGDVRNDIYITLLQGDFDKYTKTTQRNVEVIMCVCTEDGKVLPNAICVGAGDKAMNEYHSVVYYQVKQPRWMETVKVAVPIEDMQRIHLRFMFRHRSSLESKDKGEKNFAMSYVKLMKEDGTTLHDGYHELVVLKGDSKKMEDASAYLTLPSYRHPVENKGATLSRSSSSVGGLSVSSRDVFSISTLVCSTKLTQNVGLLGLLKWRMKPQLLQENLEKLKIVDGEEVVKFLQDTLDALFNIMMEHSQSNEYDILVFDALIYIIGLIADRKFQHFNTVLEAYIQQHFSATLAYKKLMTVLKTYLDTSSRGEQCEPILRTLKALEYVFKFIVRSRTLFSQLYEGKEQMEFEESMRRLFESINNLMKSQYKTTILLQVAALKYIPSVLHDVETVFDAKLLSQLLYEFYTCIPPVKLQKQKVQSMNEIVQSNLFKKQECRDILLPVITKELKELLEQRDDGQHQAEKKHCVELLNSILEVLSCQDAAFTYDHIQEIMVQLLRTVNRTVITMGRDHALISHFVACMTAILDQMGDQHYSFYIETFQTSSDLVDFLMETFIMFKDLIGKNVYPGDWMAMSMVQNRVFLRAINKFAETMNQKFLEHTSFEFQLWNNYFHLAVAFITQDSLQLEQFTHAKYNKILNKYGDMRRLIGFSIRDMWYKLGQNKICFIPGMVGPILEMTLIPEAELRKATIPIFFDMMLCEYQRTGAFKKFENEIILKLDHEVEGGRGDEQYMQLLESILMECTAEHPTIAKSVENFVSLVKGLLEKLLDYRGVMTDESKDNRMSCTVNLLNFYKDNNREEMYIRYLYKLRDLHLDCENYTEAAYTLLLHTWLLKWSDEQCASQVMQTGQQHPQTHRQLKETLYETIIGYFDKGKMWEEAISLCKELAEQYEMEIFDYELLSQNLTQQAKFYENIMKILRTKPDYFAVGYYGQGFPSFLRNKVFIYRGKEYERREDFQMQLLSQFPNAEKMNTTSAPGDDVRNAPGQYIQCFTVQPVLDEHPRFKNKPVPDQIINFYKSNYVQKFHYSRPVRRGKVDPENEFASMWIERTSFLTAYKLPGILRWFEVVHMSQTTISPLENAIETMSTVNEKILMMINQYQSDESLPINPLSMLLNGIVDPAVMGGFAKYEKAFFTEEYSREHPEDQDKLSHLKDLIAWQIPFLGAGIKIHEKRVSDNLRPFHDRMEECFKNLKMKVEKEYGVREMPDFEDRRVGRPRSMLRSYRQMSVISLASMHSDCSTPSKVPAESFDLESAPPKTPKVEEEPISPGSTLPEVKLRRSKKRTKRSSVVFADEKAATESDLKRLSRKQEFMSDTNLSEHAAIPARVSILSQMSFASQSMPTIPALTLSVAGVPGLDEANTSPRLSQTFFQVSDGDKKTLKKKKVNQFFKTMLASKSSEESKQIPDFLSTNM
UniProt P20029, residues 20-655: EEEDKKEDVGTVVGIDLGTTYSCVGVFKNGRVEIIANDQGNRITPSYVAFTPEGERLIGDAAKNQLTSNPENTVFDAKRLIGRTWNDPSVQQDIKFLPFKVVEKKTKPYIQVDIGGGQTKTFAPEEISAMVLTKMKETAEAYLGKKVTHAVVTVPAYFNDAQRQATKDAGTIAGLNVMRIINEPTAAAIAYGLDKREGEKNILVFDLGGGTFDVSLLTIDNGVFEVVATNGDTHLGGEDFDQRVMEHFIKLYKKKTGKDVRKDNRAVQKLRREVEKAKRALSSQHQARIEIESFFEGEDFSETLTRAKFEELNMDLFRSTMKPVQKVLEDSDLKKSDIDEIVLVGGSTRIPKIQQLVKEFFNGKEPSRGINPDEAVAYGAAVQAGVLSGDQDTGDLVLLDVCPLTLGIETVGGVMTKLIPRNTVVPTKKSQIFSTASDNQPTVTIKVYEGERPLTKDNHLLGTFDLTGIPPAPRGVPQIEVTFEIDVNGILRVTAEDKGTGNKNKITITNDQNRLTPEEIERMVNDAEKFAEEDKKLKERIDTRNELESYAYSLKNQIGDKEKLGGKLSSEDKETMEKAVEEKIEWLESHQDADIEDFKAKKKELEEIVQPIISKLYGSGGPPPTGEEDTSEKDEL
UniProt P08113, residues 22-802: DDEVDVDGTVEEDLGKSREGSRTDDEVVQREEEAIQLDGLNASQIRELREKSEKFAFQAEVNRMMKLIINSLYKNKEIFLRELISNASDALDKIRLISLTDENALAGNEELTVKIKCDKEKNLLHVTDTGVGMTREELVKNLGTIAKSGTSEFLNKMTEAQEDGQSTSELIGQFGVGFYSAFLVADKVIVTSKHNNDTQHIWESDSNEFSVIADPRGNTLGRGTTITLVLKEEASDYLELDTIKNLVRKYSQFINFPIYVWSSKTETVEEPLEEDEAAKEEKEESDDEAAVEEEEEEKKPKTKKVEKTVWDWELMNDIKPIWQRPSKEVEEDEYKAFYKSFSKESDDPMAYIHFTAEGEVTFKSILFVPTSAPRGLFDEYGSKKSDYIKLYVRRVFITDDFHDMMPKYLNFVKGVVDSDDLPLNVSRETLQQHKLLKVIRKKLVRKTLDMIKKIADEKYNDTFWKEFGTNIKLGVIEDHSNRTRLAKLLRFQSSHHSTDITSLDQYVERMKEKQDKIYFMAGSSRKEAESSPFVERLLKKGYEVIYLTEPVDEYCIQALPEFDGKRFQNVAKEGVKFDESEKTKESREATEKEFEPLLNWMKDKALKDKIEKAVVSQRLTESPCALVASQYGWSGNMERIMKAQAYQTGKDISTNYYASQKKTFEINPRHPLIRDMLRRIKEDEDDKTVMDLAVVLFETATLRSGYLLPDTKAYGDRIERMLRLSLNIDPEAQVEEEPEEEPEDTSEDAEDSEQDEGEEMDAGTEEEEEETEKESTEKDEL
UniProt P16110: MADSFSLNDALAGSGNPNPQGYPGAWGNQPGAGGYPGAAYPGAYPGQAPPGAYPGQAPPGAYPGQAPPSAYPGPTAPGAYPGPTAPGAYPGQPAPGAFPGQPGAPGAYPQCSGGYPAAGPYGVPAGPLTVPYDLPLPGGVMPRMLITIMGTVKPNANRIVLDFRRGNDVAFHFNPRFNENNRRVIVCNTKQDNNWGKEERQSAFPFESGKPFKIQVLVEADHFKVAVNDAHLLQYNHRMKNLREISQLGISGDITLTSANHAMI
UniProt P62821: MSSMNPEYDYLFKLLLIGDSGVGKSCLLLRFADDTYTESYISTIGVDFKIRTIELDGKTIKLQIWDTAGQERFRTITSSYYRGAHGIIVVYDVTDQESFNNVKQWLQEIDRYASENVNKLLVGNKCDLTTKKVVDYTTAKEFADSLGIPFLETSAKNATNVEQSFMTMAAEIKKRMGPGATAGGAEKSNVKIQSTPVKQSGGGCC

T2: PE_PGRS47 of Mycobacterium tuberculosis, HA-tagged (M. tuberculosis) (UniProt Q79FB3)
T2 sequence: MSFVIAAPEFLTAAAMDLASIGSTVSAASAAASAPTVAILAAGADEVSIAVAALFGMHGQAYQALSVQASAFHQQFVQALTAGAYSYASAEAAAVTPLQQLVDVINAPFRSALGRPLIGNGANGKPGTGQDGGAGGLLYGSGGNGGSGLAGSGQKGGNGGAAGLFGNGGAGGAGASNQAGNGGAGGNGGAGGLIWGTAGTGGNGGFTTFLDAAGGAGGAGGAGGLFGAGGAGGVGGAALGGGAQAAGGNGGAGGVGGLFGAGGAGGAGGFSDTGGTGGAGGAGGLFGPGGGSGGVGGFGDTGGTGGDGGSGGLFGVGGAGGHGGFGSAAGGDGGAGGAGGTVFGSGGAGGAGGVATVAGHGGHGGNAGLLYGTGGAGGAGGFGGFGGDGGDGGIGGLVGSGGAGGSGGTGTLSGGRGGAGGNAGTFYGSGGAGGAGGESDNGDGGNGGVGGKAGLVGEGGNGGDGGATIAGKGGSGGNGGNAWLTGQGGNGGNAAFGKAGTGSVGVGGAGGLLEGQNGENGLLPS

B1: Protein flightless-1 homolog (protein, UniProt Q9JJ28 1-1271)
chain: MEATGVLPFVRGVDLSGNDFKGGYFPENVKAMTSLRWLKLNRTGLCYLPEELAALQKLEHLSVSHNHLTTLHGELSSLPSLRAIVARANSLKNSGVPDDIFKLDDLSVLDLSHNQLTECPRELENAKNMLVLNLSHNGIDSIPNQLFINLTDLLYLDLSENRLESLPPQMRRLVHLQTLVLNGNPLLHAQLRQLPAMMALQTLHLRNTQRTQSNLPTSLEGLSNLSDVDLSCNDLTRVPECLYTLPSLRRLNLSSNQIAELSLCIDQWVHLETLNLSRNQLTSLPSAICKLTKLKKLYLNSNKLDFDGLPSGIGKLTSLEEFMAANNNLELIPESLCRCPKLKKLVLNKNRLVTLPEAIHFLTEIQVLDVRENPSLVMPPKPADRTAEWYNIDFSLQNQLRLAGASPATVAAAAAVGSGSKDPLARKMRLRRRKDSAQDVQAKQVLKGMSDVAQEKNKNQEESIDARAPGGKVRRWDQGLEKPRLDYSEFFTEDVGQLPGLTIWQIENFVPVLVEEAFHGKFYEADCYIVLKTFLDDSGSLNWEIYYWIGGEATLDKKACSAIHAVNLRNYLGAECRTVREEMGDESEEFLQVFDNDISYIEGGTASGFYTVEDTHYVTRMYRVYGKKNIKLEPVPLKGSSLDPRFVFLLDQGLDIYVWRGAQATLSNTTKARLFAEKINKNERKGKAEITLLVQGQEPPGFWDVLGGEPSEIKNHVPDDFWPPQPKLYKVGLGLGYLELPQINYKLSVEHKKRPKVELMPGMRLLQSLLDTRCVYILDCWSDVFIWLGRKSPRLVRAAALKLGQELCGMLHRPRHTVVSRSLEGTEAQVFKAKFKNWDDVLTVDYTRNAEAVLQGQGLSGKVKRDTEKTDQMKADLTALFLPRQPPMPLAEAEQLMEEWNEDLDGMEGFVLEGRKFTRLPEEEFGHFYTQDCYVFLCRYWVPVEYEEEEKTEDKEGKASAEAREGEEAAAEAEEKQPEEDFQCIVYFWQGREASNMGWLTFTFSLQKKFESLFPGKLEVVRMTQQQENPKFLSHFKRKFIIHRGKRKVTQGTLQPTLYQIRTNGSALCTRCIQINTDSSLLNSEFCFILKVPFESEDNQGIVYAWVGRASDPDEAKLAEDILNTMFDASYSKQVINEGEEPENFFWVGIGAQKPYDDDAEYMKHTRLFRCSNEKGYFAVTEKCSDFCQDDLADDDIMLLDNGQEVYMWVGTQTSQVEIKLSLKACQVYIQHTRSKEHERPRRLRLVRKGNEQRAFTRCFHAWSTFRQAPA
B2: 14-3-3 protein gamma (protein, UniProt P61982 1-247)
chain: MVDREQLVQKARLAEQAERYDDMAAAMKNVTELNEPLSNEERNLLSVAYKNVVGARRSSWRVISSIEQKTSADGNEKKIEMVRAYREKIEKELEAVCQDVLSLLDNYLIKNCSETQYESKVFYLKMKGDYYRYLAEVATGEKRATVVESSEKAYSEAHEISKEHMQPTHPIRLGLALNYSVFYYEIQNAPEQACHLAKTAFDDAIAELDTLNEDSYKDSTLIMQLLRDNLTLWTSDQQDDDGGEGNN
B3: Phosphate carrier protein, mitochondrial (protein, UniProt Q8VEM8 46-357)
chain: AVEEYSCEFGSMKYYALCGFGGVLSCGLTHTAVVPLDLVKCRMQVDPQKYKGIFNGFSITLKEDGVRGLAKGWAPTLIGYSMQGLCKFGFYEVFKALYSNILGEENTYLWRTSLYLASSASAEFFADIALAPMEAAKVRIQTQPGYANTLREAVPKMYKEEGLNAFYKGVAPLWMRQIPYTMMKFACFERTVEALYKFVVPKPRSECTKAEQLVVTFVAGYIAGVFCAIVSHPADSVVSVLNKEKGSTASQVLQRLGFRGVWKGLFARIIMIGTLTALQWFIYDSVKVYFRLPRPPPPEMPESLKKKLGLTE
B4: Myb-binding protein 1A (protein, UniProt Q7TPV4 1-1344)
chain: MAEMKSPTKAEPATPAEAAQSDRHSLLEHSREFLDFFWDIAKPDQETRLRATEKLLEYLRTRPNDSEMKYALKRLITGLGVGREAARPCYSLALAQLLQSFEDIPLCDILDQIQEKYSLQAMNKAMMRPSLFANLFGVLALFQSGRLVKDKEALMKSVQLLKILSQHPNHLQGQPIKALVDILSEVPESMFQEILPKVLKGNMKVILRSPKYLELFLLAKQRVPTKLESLMGSVDLFSEDNIPSLVNILKVAANSVKKEHKLPNVALDLLRLALKESRFELFWKKVLEEGLLKNPSWTSSYMCFRLLGASLPLLSEEQLQLVMRGDLIRHFGENMVISKPQNLFKIIPEISTYVGTFLEGCQDDPKRQLTMMVAFTTITNQGLPVMPTFWRVTRFLNAEALQSYVAWLRDMFLQPDLNSLVDFSTANQKRAQDASLNVPERAVFRLRKWIIHRLVSLVDHLHLEKDEAVVEQIARFCLFHAFFKTKKATPQIPETKQHFSFPLDDRNRGVFVSAFFSLLQTLSVKFRQTPDLAENGKPWTYRLVQLADMLLNHNRNVTSVTSLTTQQRQAWDQMMSTLKELEARSSETRAIAFQHLLLLVGLHIFKSPAESCDVLGDIQTCIKKSMEQNPRRSRSRAKASQEPVWVEVMVEILLSLLAQPSNLMRQVVRSVFGHICPHLTPRCLQLILAVLSPVTNEDEDDNVVVTDDADEKQLQHGEDEDSDNEDNKNSESDMDSEDGEESEEEDRDKDVDPGFRQQLMEVLKAGNALGGVDNEEEEELGDEAMMALDQNLASLFKEQKMRIQARNEEKNKLQKEKKLRRDFQIRALDLIEVLVTKQPEHPLILELLEPLLNVIQHSMRSKGSTKQEQDLLHKTARIFMHHLCRARRYCHEVGPCAEALHAQVERLVQQAGSQADASVALYYFNASLYLLRVLKGNTNKRHQDGHKLHGADTEDSEDQAANCLDLDFVTRVYSASLESLLTKRNSSLTVPMFLSLFSRYPVICKNLLPVLAQHVAGPSRPRHQAQACLMLQKTLSARELRVCFEDPEWEQLITQLLGKATQTLQTLGEAQSKGEHQKELSILELLNTLLRTVNHEKLSVDLTAPLGVLQSKQQKLQQSLQQGNHSSGSNRLYDLYWQAMRMLGVQRPKSEKKNAKDIPSDTQSPVSTKRKKKGFLPETKKRKKLKSEGTTPEKNAASQQDAVTEGAMPAATGKDQPPSTGKKKRKRVKASTPSQVNGITGAKSPAPSNPTLSPSTPAKTPKLQKKKEKLSQVNGATPVSPIEPESKKHHQEALSTKEVIRKSPHPQSALPKKRARLSLVSRSPSLLQSGVKKRRVASRRVQTP
B5: Lysozyme C-1 (protein, UniProt P17897 19-148)
chain: KVYNRCELARILKRNGMDGYRGVKLADWVCLAQHESNYNTRATNYNRGDRSTDYGIFQINSRYWCNDGKTPRSKNACGINCSALLQDDITAAIQCAKRVVRDPQGIRAWVAWRTQCQNRDLSQYIRNCGV
B6: MICOS complex subunit Mic19 (protein, UniProt Q9CRB9 1-227)
chain: MGGTASTRRVTFEADENENITVVKGIRLSENVIDRMKESSPSGSKSQRYSSVYGASVSDEDLKRRVAEELALEQAKKESEHQRRLKQARDLERERAAANEQLTRAVLRERISSEEERMKAKHLARQLEEKDRVMRKQDAFYKEQLARLEERSSEFYKVTTEEYQKAAEEVEAKFKRYEYHPVCADLQTKILQCYRQNTQQTLSCSALASQYMHCVNHAKQSMLEKGG

Columns and labels:
[1] = molecular target: T1, PE_PGRS20 of Mycobacterium tuberculosis, HA-tagged (M. tuberculosis); experiment: affinity purification with mass spectrometry
[2] = molecular target: T2, PE_PGRS47 of Mycobacterium tuberculosis, HA-tagged (M. tuberculosis); experiment: affinity purification with mass spectrometry

Molecule | binding [1] | binding [2]
ATP synthase subunit beta, mitochondrial (from UniProt P56480 47-529) | binds | binds
Dedicator of cytokinesis protein 2 (from UniProt Q8C3J5 1-1828) | binds | 
Endoplasmic reticulum chaperone BiP (from UniProt P20029 20-655) | binds | binds
Endoplasmin (from UniProt P08113 22-802) | binds | binds
Galectin-3 (from UniProt P16110 1-264) |  | binds
Ras-related protein Rab-1A (from UniProt P62821 1-205) | binds | binds
B1 | binds | 
B2 | binds | binds
B3 | binds | binds
B4 | binds | 
B5 |  | binds
B6 | binds | binds

— paper PMC8386380
